This data set has as its system Lipase (glycerol ester hydrolase). Put plainly: Lipase (glycerol ester hydrolase) assay, esterase resistance. Format: biochemical, Staphylococcus aureus. The settings on record: 500 ug/ml compound in agarose slide, 24 hours at 37° C. As to the method:
Protocol for Lipase (glycerol ester hydrolase) assay: • 1. Two separate samples of lipase at 25 ug/ml were prepared. • 2. Microscope slides were made up with 500 ug/ml of GML, SGML, or S2ML compounds. • These slides contained 0.85% agarose (Difco) heat solubilized into PBS (0.005 M NaPO4 pH 7.2; 0.15MNaC1). • 3. The mixtures contained the compounds above their solubility limits, so they were vortexed, and 4.5 ml of the cloudy mixtures was spread onto microscope slides. • 4. The slides remained at room temperature for 1 hour to allow the agarose to solidify. • 5. The, 4 mm wells were punched into the agarose, twice per slide. • 6. 20 ul of the Lipase was added to each well. • 7. The slides were incubated for 24 hours at 37° C. • 8. The diameter squared was determined for each. This allows determination of hydrolysis of compound. • GML: 15 mm; 15 mm diameters (diameters squared=225 mm) • SGML: 12 mm; 13 mm diameters (diameters squared=144 mm and 169 mm for an average of 156.5 mm) • S2GML: 0 mm; 0 mm diameters (diameters squared=0) • 10. Diameter squared is used to the determination would be a straight line with a standard curve. • Set GML at 100% • 11. SGML is 70% as much as GML • 12. S2GML is 0% of GML

As to `CCCCCCCCCCCC(=O)OCC(O)CO` (centres unmarked) [GML, glycerol monolaureate], the “diameters (hydrolysis zone)” value (20 ul lipase 25 ug/ml per well, two lipase samples) stood at 15 mm. This compound also yielded a diameters squared (lipase 25 ug/ml) of 225 mm.
